Among all 390,000 compounds or so, about 910 (0.23%) were called active. This list was built around the results that the source calls inconclusive (neither active nor inactive); the mix of calls is not that of the screen. Calls follow the shape of the dose curve; as a rule, active = well fitted inhibition curve with a large enough effect; inconclusive = small, poorly fitted or top-dose-only effect; inactive = no such curve, though single readings can be large or run the other way. Where the call is inconclusive, the potency comes from a doubtful curve fit.
molecular target: Ubiquitin carboxyl-terminal hydrolase 1 (Homo sapiens) (UniProt O94782); assay: Inhibitors of USP1/UAF1: Primary Screen; details: recombinant USP1/UAF1, Ub-Rhodamine cleavage fluorescence; series mostly up to 57.1 µM; also: nearly all actives have a fitted effect of over 60% in size
In short: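 In this screen, compounds sit with the deubiquitinase complex (1nM) for 15 min at room temperature before Ub-Rho is added at 150nM final. Fluorescence rise is then followed for 6 reads every 60 seconds.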
Potency is read from the fitted curve at half-maximal effect.

Amino acid sequences for entries named in this document (tags omitted). A change or cut given only in a name is not applied to a line headed by its entry.
UniProt O94782: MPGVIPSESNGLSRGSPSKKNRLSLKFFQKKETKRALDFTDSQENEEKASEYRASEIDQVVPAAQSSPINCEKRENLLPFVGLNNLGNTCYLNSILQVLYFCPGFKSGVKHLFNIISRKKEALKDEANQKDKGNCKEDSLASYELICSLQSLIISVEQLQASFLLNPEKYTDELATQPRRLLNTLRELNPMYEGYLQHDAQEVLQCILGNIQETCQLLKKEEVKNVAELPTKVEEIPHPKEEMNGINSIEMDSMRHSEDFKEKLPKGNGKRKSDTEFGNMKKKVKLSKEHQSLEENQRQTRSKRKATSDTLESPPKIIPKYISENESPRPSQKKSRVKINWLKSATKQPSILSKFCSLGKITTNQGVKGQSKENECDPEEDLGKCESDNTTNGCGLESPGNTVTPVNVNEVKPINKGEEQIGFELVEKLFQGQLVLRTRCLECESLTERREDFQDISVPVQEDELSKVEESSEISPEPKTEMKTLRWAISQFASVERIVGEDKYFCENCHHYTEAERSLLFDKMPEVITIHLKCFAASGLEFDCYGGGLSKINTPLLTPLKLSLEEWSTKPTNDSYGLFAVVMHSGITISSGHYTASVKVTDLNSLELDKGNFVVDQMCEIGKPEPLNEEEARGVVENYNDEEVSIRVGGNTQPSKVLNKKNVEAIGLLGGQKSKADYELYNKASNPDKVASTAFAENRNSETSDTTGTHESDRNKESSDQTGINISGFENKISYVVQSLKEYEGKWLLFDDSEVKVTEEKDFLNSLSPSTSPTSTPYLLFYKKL

SMILES | Potency
Cc1ccsc1CNCc1cc(Cl)ccc1O | inconclusive: 39.8 µM [inhibitor, single point]
Cc1cccc(CNC(=O)c2ccc(C)c(-n3c(C)nc4cccnc43)c2)c1 | inconclusive: 0.708 µM [inhibitor, full curve]
O=C(NCc1cccnc1)C1CC(=O)N(C2CCCCC2)C1 (stereo unspecified) | inconclusive: 20 µM [inhibitor, partial curve, poor fit]
C[C@@H]1CN([C@H](C)CO)C(=O)CCCn2nncc2CO[C@H]1CN(C)Cc1ccc2c(c1)OCCO2 | inconclusive: 0.251 µM [inhibitor, full curve, poor fit]
CCC(CC)c1nnc(NC(=O)c2c(-c3ccccc3)noc2C)s1 | inconclusive: 0.794 µM [inhibitor, full curve, poor fit]
COc1cccc(-n2cc(C(=O)OCc3ccc(Cl)cc3)c3ccccc3c2=O)c1 | inconclusive: 0.112 µM [inhibitor, full curve, poor fit]
COc1cc(OC)c(NC(=O)c2c(C)oc3nc(C)nc(N4CCOCC4)c23)cc1Cl | inactive
Nn1c(SCC(=O)Nc2ccc3c(c2)OCO3)nnc1C(F)(F)F | inconclusive: 0.355 µM [inhibitor, full curve]
CCn1ccc2cc(S(=O)(=O)N3CCC(C(=O)NCCc4ccccc4)CC3)ccc21 | inconclusive: 50.1 µM [inhibitor, partial curve, poor fit]
O=c1c(S(=O)(=O)c2cccc(Cl)c2)cn(Cc2ccccc2)c2cc(N3CCCCC3)c(F)cc12 | inconclusive: 4.47 µM [inhibitor, partial curve]
CC1(c2nnc(Cc3ccccc3)o2)CC(c2cccc(Cl)c2)=NO1 (stereo unspecified) | inconclusive: 70.8 µM [inhibitor, partial curve, poor fit]
O=C(O)c1ccc2nc(-c3ccccc3)c(-c3ccccc3)nc2c1 | inactive
Cc1ccc(C(=O)CSc2nc3ccc(C(=O)NCCN4CCCCC4)cc3c(=O)[nH]2)cc1 | inconclusive: 7.94 µM [inhibitor, partial curve, poor fit]
Cc1ccc2oc(=O)c3cnn(CC(=O)NCCC(C)C)c3c2c1 | inactive
Cc1nc(C)n(CCNS(=O)(=O)c2ccc(C)c(C)c2)n1 | inconclusive: 0.794 µM [inhibitor, full curve, poor fit]
COCCNc1oc(/C=C/c2cccc(OC)c2)nc1S(=O)(=O)c1ccccc1 | inactive
O=C(Cn1ccc2ccccc2c1=O)NCCC(=O)Nc1ccc(F)cc1F | inconclusive: 50.1 µM [inhibitor, single point]
Fc1ccc(N/N=C2/CCSc3sccc32)c(F)c1 | inconclusive: 50.1 µM [inhibitor, partial curve, poor fit]
CCOc1ccc(N(C(=O)c2snc(C(N)=O)c2N)C(C(=O)NC2CCCC2)c2ccncc2)cc1 (stereo unspecified) | inconclusive: 50.1 µM [inhibitor, partial curve, poor fit]
CCOC(=O)c1cnc2c(ccc3ccccc32)c1Nc1ccc(OCC)cc1 | inconclusive: 35.5 µM [inhibitor, partial curve]
COc1ccc(CCNC(=O)c2cc3c(s2)-c2ccccc2OC3)cc1OC | inconclusive: 5.62 µM [inhibitor, single point]
Cc1cccc(NC(=O)Nc2ccc(Br)cc2)n1 | inconclusive: 50.1 µM [inhibitor, partial curve, poor fit]

SMILES | Potency
O=C1CCCc2cc(S(=O)(=O)NCC3CCC(C(=O)NCc4ccccc4Cl)CC3)ccc2N1 (stereo unspecified) | inactive
COc1ccccc1NS(=O)(=O)c1ccc(N2CCOCC2)c(NC(=O)c2ccco2)c1 | inconclusive: 11.2 µM [inhibitor, partial curve, poor fit]
NC(=O)C1CCN(c2oc(-c3ccccc3F)nc2S(=O)(=O)c2ccc(Cl)cc2)CC1 | inactive
COc1ccc(/C=C2\Oc3cc(OCC(=O)N4CCC(C(=O)O)CC4)ccc3C2=O)c(OC)c1 | inconclusive: 31.6 µM [inhibitor, partial curve]
COc1cccc(C(=O)Nc2ccc(-n3nncc3-c3ccccc3)cc2)c1 | inconclusive: 0.224 µM [inhibitor, full curve, poor fit]
CCCCC[C@@H]1C=C(C(=O)O)[C@H](c2ccc(Cl)c(Cl)c2)N1S(=O)(=O)c1ccc(C)cc1 | inconclusive: 35.5 µM [inhibitor, partial curve, poor fit]
Cc1nn(C)cc1-c1csc(N)n1 | inconclusive: 8.91 µM [inhibitor, single point]
Cc1oc2ncn(CC(C)C)c(=O)c2c1C(=O)NCCCN1CCC(C)CC1 | inactive
O=C(COc1ccccc1F)OCc1cc(=O)n2nc(C3CC3)sc2n1 | inactive
Cc1ccc(OCC(=O)N(Cc2ccco2)Cc2ccco2)cc1C | inactive
O=C(Cn1c2ccccc2c(=O)c2ccccc21)N/N=C/c1ccc(N2CCCC2)c([N+](=O)[O-])c1 | inactive
COc1cc(C(=O)n2nc(C)cc2C)ccc1O | inactive
Cc1ccc(NC(=O)c2cc3c(=O)n(Cc4ccco4)ccc3nc2C)cc1C | inconclusive: 12.6 µM [inhibitor, partial curve]
OC1CN=C2CCCc3c2n(c2ccc(Cl)cc32)C1 (stereo unspecified) | inactive
CCCCCOc1ccc(NC(=O)Cc2csc(C)n2)cc1 | inactive
O=C(NCCCN1CCN(c2ccccc2F)CC1)c1cc2c(Cl)nc3ccccc3c2s1 | inconclusive: 3.16 µM [inhibitor, full curve]
COc1cc(-c2nnc(SCC(=O)N(Cc3ccccc3)C(C)(C)C)o2)cc(OC)c1OC | inconclusive: 6.31 µM [inhibitor, full curve, poor fit]
COCCn1c(SCCN2CCOCC2)nc2c1c(=O)[nH]c(=O)n2C | inactive
CCn1cc2nc(SCC(=O)Nc3ccccc3F)n(Cc3ccc(C)cc3)c(=O)c2n1 | inactive
COc1ccc(-c2cc3nc(C)c(CCC(=O)Nc4cccc(C(F)(F)F)c4)c(C)n3n2)c(OC)c1 | inconclusive: 2.51 µM [inhibitor, full curve, poor fit]
N#C/C(=N\Nc1ccc([N+](=O)[O-])cc1)C(N)=S | inconclusive: 28.2 µM [inhibitor, partial curve]
CCn1c2ccc(C)cc2c2nc3cc(C(=O)O)ccc3nc21 | inconclusive: 39.8 µM [inhibitor, partial curve]

Reformatted: 3 of the compounds above
SMILES,Potency
O=C1CCCc2cc(S(=O)(=O)NCC3CCC(C(=O)NCc4ccccc4Cl)CC3)ccc2N1 (stereo unspecified),inactive
COc1ccccc1NS(=O)(=O)c1ccc(N2CCOCC2)c(NC(=O)c2ccco2)c1,"inconclusive: 11.2 µM [inhibitor, partial curve, poor fit]"
NC(=O)C1CCN(c2oc(-c3ccccc3F)nc2S(=O)(=O)c2ccc(Cl)cc2)CC1,inactive

Remaining list, next part

SMILES | Potency
COc1ccccc1/C=N/n1cnnc1 | inconclusive: 56.2 µM [inhibitor, partial curve, poor fit]
CCOc1cc(C2NC(=O)c3c(sc4c3CCN(C)C4)N2)ccc1OC(=O)c1ccccc1Cl (stereo unspecified) | inactive
O=C(CN1CCN(c2ccccn2)CC1)Nc1cc(C(F)(F)F)ccc1Cl | inconclusive: 31.6 µM [inhibitor, partial curve]
Cc1ccc(CNC(=O)C2c3ccccc3C(=O)N3CCc4ccccc4C23)o1 (stereo unspecified) | inconclusive: 15.8 µM [inhibitor, partial curve]
Cc1ccccc1Nc1cc2ccccc2c(=O)[nH]1 | active: 1 µM
N#Cc1c(-c2ccc(F)cc2)cc(-c2ccccc2)nc1SCC(=O)NCC(=O)O | inactive
O=C(NN1C(=O)/C(=C/c2ccc(O)cc2)SC1=S)c1cccc(O)c1 | inconclusive: 25.1 µM [inhibitor, single point]
COc1ccc(Cl)cc1NC(=O)Nc1cn(C)nc1C | inconclusive: 39.8 µM [inhibitor, partial curve, poor fit]
COc1cc(/C=N/NC(=O)c2cccc([N+](=O)[O-])c2)cc(OC)c1O | inactive
CC(C)CC1(C)NC(=O)N(CC(=O)Nc2ccc3c(c2)CCC3)C1=O (stereo unspecified) | inconclusive: 39.8 µM [inhibitor, partial curve, poor fit]
O=C(COc1ccc(F)cc1)Nc1ccc(C(=O)OCc2cc(=O)n3nc(C4CC4)sc3n2)cc1 | inconclusive: 14.1 µM [inhibitor, partial curve, poor fit]
CCN(CC(F)(F)C(F)F)S(=O)(=O)c1ccc(NC(=O)OC)cc1 | inactive
CCOc1ccc(NC(=O)N2CCC(c3ccc(C)cc3)C2)cc1 (stereo unspecified) | inactive
O=C(Nc1nnc(-c2ccc3c(c2)CCCC3)o1)c1ccccc1 | inconclusive: 44.7 µM [inhibitor, partial curve]
O=C(CCCCC(=O)NN=Cc1ccccc1O)NN=Cc1ccccc1O | inconclusive: 44.7 µM [inhibitor, partial curve, poor fit]
CCN(Cc1ccccc1)c1ccc(/C=C(\C#N)c2ccccn2)cc1 | inconclusive: 50.1 µM [inhibitor, partial curve, poor fit]
Cc1ccc2nc(-c3ccc(NC(=S)NC4CC(C)(C)NC(C)(C)C4)cc3)sc2c1 | inactive
CC1(C)CC(=O)C2=C(C1)Nc1ccccc1S2 | inconclusive: 28.2 µM [inhibitor, partial curve, poor fit]
CCOc1ccc(NC(=O)Cn2nc(SC)c(S(=O)(=O)c3ccccc3)c2N)cc1 | inconclusive: 44.7 µM [inhibitor, partial curve, poor fit]
COC(=O)CCCC1=CC2=C(c3ccccc3)C(=O)C(C)(OC(=O)C3CCCC3)C(=O)C2=CN1Cc1ccc2c(c1)OCO2 (stereo unspecified) | inconclusive: 0.251 µM [inhibitor, full curve, poor fit]
CCc1nn(CC(=O)N2CCN(c3cccc(Cl)c3)CC2)c(=O)c2cc3sccc3n12 | inconclusive: 0.708 µM [inhibitor, full curve, poor fit]
CCc1nn2c(N)c(/C=C3\C=Nc4ccccc43)c(=O)nc2s1 | inactive

Looked up above:
Entry for `CCc1nn2c(N)c(/C=C3\C=Nc4ccccc43)c(=O)nc2s1` under Potency: inactive
Entry for `CCOc1ccc(NC(=O)N2CCC(c3ccc(C)cc3)C2)cc1` (stereo unspecified) under Potency: inactive

Source: PubChem BioAssay AID743255 (National Center for Advancing Translational Sciences (NCATS), 2014)
